For this assay, the target named is UniProt Q15413. The assay can be described thus: melting temperature shift (DMSO Tm minus MBE1-treated Tm) in cellular thermal proteome profiling; higher = less thermal stabilization by MBE1 (negative = stabilized by MBE1). The note with it: A375.

Some of the results follow. Single values of this set are uncertain.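 Many melting curves are irregular; where none melted, Tm was taken as 64 °C.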

Take `CCc1cnccc1C(=O)Nc1cc2c(cc1F)NC(=O)CC2`: the melting temperature shift runs as follows: (MBE1 concentration: 100 nM) -2.19 °C; (MBE1 concentration: 1 uM) 1.06 °C.

(Values after the supplement of paper PMC12595434, “Development of retinoid nuclear receptor pathway antagonists through targeting aldehyde dehydrogenase 1A3” (iScience, 2025).)
